Experimental data: US20130052670A1
These are yes or no findings as the source states them, for the method shown. Some results given as binding are weak or reduced against the parent protein; the word gives no strength.

By UniProt entry, the sequences of proteins in these tests, tags left out. Residues count along the entry.
Aβ oligomers (ADDLs, amyloid-β derived diffusible ligands) prepared from Aβ42 (P05067, residues 672-713): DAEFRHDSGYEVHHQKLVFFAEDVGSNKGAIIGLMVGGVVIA
Aβ40 monomer (amyloid β peptide 1-40) (P05067, residues 672-711): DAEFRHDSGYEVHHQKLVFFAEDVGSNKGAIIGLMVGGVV

Assays:
[1] = target: Aβ40 monomer (amyloid β peptide 1-40) (UniProt P05067); test: one-sided ELISA on coated plates
[2] = target: Aβ oligomers (ADDLs, amyloid-β derived diffusible ligands) prepared from Aβ42 (UniProt P05067); test: one-sided ELISA on coated plates
[3] = target: Aβ oligomers (ADDLs, amyloid-β derived diffusible ligands) prepared from Aβ42 (UniProt P05067); test: competitive binding ELISA with Aβ oligomers and Aβ monomer
[4] = target: Aβ oligomers (ADDLs, amyloid-β derived diffusible ligands) prepared from Aβ42 (UniProt P05067); test: target engagement sandwich ELISA, complexes formed ex vivo in human CSF or casein buffer
[5] = target: Aβ oligomers (ADDLs, amyloid-β derived diffusible ligands) prepared from Aβ42 (UniProt P05067); test: ELISA (FIGS. 1A-1C)

Measured: binding

B1: anti-Aβ oligomer antibody 19.3 (antibody, V domains shown)
VH: EVQLVESGGGLVQPGGSLRLSCAASGFTFSSFGMHWVRQAPGKGLEWVAYISRGSSTIYYADTVKGRFTISRDNAKNSLYLQMNSLRAEDTAVYYCARGITTALDYWGQGTLVTVSS
VL: DVVMTQSPLSLPVTPGEPASISCRSSQSIVHSNGNTYLEWYLQKPGQSPQLLIYKASNRFSGVPDRFSGSGSGTDFTLKISRVEAEDVGVYYCFQGSRLGPSFGQGTKLEIK
binds: all assays above
